Consider one molecule from article PMC7554048, “FBI-1 enhanced the resistance of triple-negative breast cancer cells to chemotherapeutic agents via the miR-30c/PXR axis” (Cell Death & Disease, 2020).

By UniProt entry, the sequences of proteins in these tests, tags left out.
UniProt O95365: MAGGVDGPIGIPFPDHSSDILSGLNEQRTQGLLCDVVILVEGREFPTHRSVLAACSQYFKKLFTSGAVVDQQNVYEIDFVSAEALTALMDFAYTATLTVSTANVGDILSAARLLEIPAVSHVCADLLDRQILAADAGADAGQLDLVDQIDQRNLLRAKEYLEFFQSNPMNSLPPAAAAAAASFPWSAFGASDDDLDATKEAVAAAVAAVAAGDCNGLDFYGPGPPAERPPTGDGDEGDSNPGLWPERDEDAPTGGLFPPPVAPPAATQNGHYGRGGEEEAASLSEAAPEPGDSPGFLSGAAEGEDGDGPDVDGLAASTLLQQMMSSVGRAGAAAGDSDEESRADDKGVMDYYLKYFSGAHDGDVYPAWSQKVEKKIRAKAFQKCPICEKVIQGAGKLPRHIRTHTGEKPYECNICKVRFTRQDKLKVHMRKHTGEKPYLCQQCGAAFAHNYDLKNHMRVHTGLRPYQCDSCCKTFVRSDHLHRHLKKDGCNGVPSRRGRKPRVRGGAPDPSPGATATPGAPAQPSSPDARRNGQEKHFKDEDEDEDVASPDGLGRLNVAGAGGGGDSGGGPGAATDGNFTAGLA

The assay has as its target FLAG-FBI-1 (factor that binds to inducer of short transcripts-1) (UniProt O95365). The experiment in a line: co-IP; TNBC PDC No. 6 (high PXR) or No. 3 (low PXR) transfected with FLAG vector or FLAG-FBI1 vector; lysed 48 h after transfection; FLAG-FBI-1 separated with beads carrying monoclonal FLAG antibody; HA-PXR examined with monoclonal HA antibody by western blot.

Results are given in words; binding and its absence hold for the method and conditions named. Binding seen in cells or lysates may run through a third protein. Sequences can lack the tags named with a protein.

B1: HA-PXR (pregnane X receptor) (protein, UniProt O75469 1-434)
chain: MEVRPKESWNHADFVHCEDTESVPGKPSVNADEEVGGPQICRVCGDKATGYHFNVMTCEGCKGFFRRAMKRNARLRCPFRKGACEITRKTRRQCQACRLRKCLESGMKKEMIMSDEAVEERRALIKRKKSERTGTQPLGVQGLTEEQRMMIRELMDAQMKTFDTTFSHFKNFRLPGVLSSGCELPESLQAPSREEAAKWSQVRKDLCSLKVSLQLRGEDGSVWNYKPPADSGGKEIFSLLPHMADMSTYMFKGIISFAKVISYFRDLPIEDQISLLKGAAFELCQLRFNTVFNAETGTWECGRLSYCLEDTAGGFQQLLLEPMLKFHYMLKKLQLHEEEYVLMQAISLFSPDRPGVLQHRVVDQLQEQFAITLKSYIECNRPQPAHRFLFLKIMAMLTELRSINAQHTQRLLRIQDIHPFATPLMQELFGITGS
As to B1, the binding entry was “no binding”.
